Data from article PMC5421940.

Experiments:
[1] = target: GFP-MCPyV tAg (Merkel cell polyomavirus small T antigen, wild type) (Merkel cell polyomavirus); test: co-IP
[2] = target: GST-tAg (bacterially expressed MCPyV small T antigen) (Merkel cell polyomavirus); test: pull-down; bacterially expressed GST fusion on glutathione-agarose beads, incubated 3 hours in lysis buffer with one ITT produced protein alone, western blot; only the target purified
[3] = target: GFP-MCPyV tAg N100A (Merkel cell polyomavirus); test: co-IP

B1: endogenous PP4R1 (MCC13 cells) (protein, UniProt Q8TF05 1-950)
chain: MADLSLLQEDLQEDADGFGVDDYSSESDVIIIPSALDFVSQDEMLTPLGRLDKYAASENIFNRQMVARSLLDTLREVCDDERDCIAVLERISRLADDSEPTVRAELMEQVPHIALFCQENRPSIPYAFSKFLLPIVVRYLADQNNQVRKTSQAALLALLEQELIERFDVETKVCPVLIELTAPDSNDDVKTEAVAIMCKMAPMVGKDITERLILPRFCEMCCDCRMFHVRKVCAANFGDICSVVGQQATEEMLLPRFFQLCSDNVWGVRKACAECFMAVSCATCQEIRRTKLSALFINLISDPSRWVRQAAFQSLGPFISTFANPSSSGQYFKEESKSSEEMSVENKNRTRDQEAPEDVQVRPEDTPSDLSVSNSSVILENTMEDHAAEASGKPLGEISVPLDSSLLCTLSSESHQEAASNENDKKPGNYKSMLRPEVGTTSQDSALLDQELYNSFHFWRTPLPEIDLDIELEQNSGGKPSPEGPEEESEGPVPSSPNITMATRKELEEMIENLEPHIDDPDVKAQVEVLSAALRASSLDAHEETISIEKRSDLQDELDINELPNCKINQEDSVPLISDAVENMDSTLHYIHSDSDLSNNSSFSPDEERRTKVQDVVPQALLDQYLSMTDPSRAQTVDTEIAKHCAYSLPGVALTLGRQNWHCLRETYETLASDMQWKVRRTLAFSIHELAVILGDQLTAADLVPIFNGFLKDLDEVRIGVLKHLHDFLKLLHIDKRREYLYQLQEFLVTDNSRNWRFRAELAEQLILLLELYSPRDVYDYLRPIALNLCADKVSSVRWISYKLVSEMVKKLHAATPPTFGVDLINELVENFGRCPKWSGRQAFVFVCQTVIEDDCLPMDQFAVHLMPHLLTLANDRVPNVRVLLAKTLRQTLLEKDYFLASASCHQEAVEQTIMALQMDRDSDVKYFASIHPASTKISEDAMSTASSTY
B1 was tested, and the binding [1] was “binds”.

B2: HA-PP4R1, ITT produced (protein, UniProt Q8TF05 1-950)
chain: MADLSLLQEDLQEDADGFGVDDYSSESDVIIIPSALDFVSQDEMLTPLGRLDKYAASENIFNRQMVARSLLDTLREVCDDERDCIAVLERISRLADDSEPTVRAELMEQVPHIALFCQENRPSIPYAFSKFLLPIVVRYLADQNNQVRKTSQAALLALLEQELIERFDVETKVCPVLIELTAPDSNDDVKTEAVAIMCKMAPMVGKDITERLILPRFCEMCCDCRMFHVRKVCAANFGDICSVVGQQATEEMLLPRFFQLCSDNVWGVRKACAECFMAVSCATCQEIRRTKLSALFINLISDPSRWVRQAAFQSLGPFISTFANPSSSGQYFKEESKSSEEMSVENKNRTRDQEAPEDVQVRPEDTPSDLSVSNSSVILENTMEDHAAEASGKPLGEISVPLDSSLLCTLSSESHQEAASNENDKKPGNYKSMLRPEVGTTSQDSALLDQELYNSFHFWRTPLPEIDLDIELEQNSGGKPSPEGPEEESEGPVPSSPNITMATRKELEEMIENLEPHIDDPDVKAQVEVLSAALRASSLDAHEETISIEKRSDLQDELDINELPNCKINQEDSVPLISDAVENMDSTLHYIHSDSDLSNNSSFSPDEERRTKVQDVVPQALLDQYLSMTDPSRAQTVDTEIAKHCAYSLPGVALTLGRQNWHCLRETYETLASDMQWKVRRTLAFSIHELAVILGDQLTAADLVPIFNGFLKDLDEVRIGVLKHLHDFLKLLHIDKRREYLYQLQEFLVTDNSRNWRFRAELAEQLILLLELYSPRDVYDYLRPIALNLCADKVSSVRWISYKLVSEMVKKLHAATPPTFGVDLINELVENFGRCPKWSGRQAFVFVCQTVIEDDCLPMDQFAVHLMPHLLTLANDRVPNVRVLLAKTLRQTLLEKDYFLASASCHQEAVEQTIMALQMDRDSDVKYFASIHPASTKISEDAMSTASSTY
With B2 the binding [2] was “binds”.

B3: HA-PP4R1 (expressed in cells) (protein, UniProt Q8TF05 1-950)
chain: MADLSLLQEDLQEDADGFGVDDYSSESDVIIIPSALDFVSQDEMLTPLGRLDKYAASENIFNRQMVARSLLDTLREVCDDERDCIAVLERISRLADDSEPTVRAELMEQVPHIALFCQENRPSIPYAFSKFLLPIVVRYLADQNNQVRKTSQAALLALLEQELIERFDVETKVCPVLIELTAPDSNDDVKTEAVAIMCKMAPMVGKDITERLILPRFCEMCCDCRMFHVRKVCAANFGDICSVVGQQATEEMLLPRFFQLCSDNVWGVRKACAECFMAVSCATCQEIRRTKLSALFINLISDPSRWVRQAAFQSLGPFISTFANPSSSGQYFKEESKSSEEMSVENKNRTRDQEAPEDVQVRPEDTPSDLSVSNSSVILENTMEDHAAEASGKPLGEISVPLDSSLLCTLSSESHQEAASNENDKKPGNYKSMLRPEVGTTSQDSALLDQELYNSFHFWRTPLPEIDLDIELEQNSGGKPSPEGPEEESEGPVPSSPNITMATRKELEEMIENLEPHIDDPDVKAQVEVLSAALRASSLDAHEETISIEKRSDLQDELDINELPNCKINQEDSVPLISDAVENMDSTLHYIHSDSDLSNNSSFSPDEERRTKVQDVVPQALLDQYLSMTDPSRAQTVDTEIAKHCAYSLPGVALTLGRQNWHCLRETYETLASDMQWKVRRTLAFSIHELAVILGDQLTAADLVPIFNGFLKDLDEVRIGVLKHLHDFLKLLHIDKRREYLYQLQEFLVTDNSRNWRFRAELAEQLILLLELYSPRDVYDYLRPIALNLCADKVSSVRWISYKLVSEMVKKLHAATPPTFGVDLINELVENFGRCPKWSGRQAFVFVCQTVIEDDCLPMDQFAVHLMPHLLTLANDRVPNVRVLLAKTLRQTLLEKDYFLASASCHQEAVEQTIMALQMDRDSDVKYFASIHPASTKISEDAMSTASSTY
B3 was tested, and the binding [1] was “binds”.

B4: FLAG-PP4c (expressed in cells) (enzyme, UniProt P60510 1-307)
chain: MAEISDLDRQIEQLRRCELIKESEVKALCAKAREILVEESNVQRVDSPVTVCGDIHGQFYDLKELFRVGGDVPETNYLFMGDFVDRGFYSVETFLLLLALKVRYPDRITLIRGNHESRQITQVYGFYDECLRKYGSVTVWRYCTEIFDYLSLSAIIDGKIFCVHGGLSPSIQTLDQIRTIDRKQEVPHDGPMCDLLWSDPEDTTGWGVSPRGAGYLFGSDVVAQFNAANDIDMICRAHQLVMEGYKWHFNETVLTVWSAPNYCYRCGNVAAILELDEHLQKDFIIFEAAPQETRGIPSKKPVADYFL
B4 was tested, and the binding [3] was “binds” and the binding [1] was “binds”.

B5: FLAG-tagged PP4c, ITT produced (enzyme, UniProt P60510 1-307)
chain: MAEISDLDRQIEQLRRCELIKESEVKALCAKAREILVEESNVQRVDSPVTVCGDIHGQFYDLKELFRVGGDVPETNYLFMGDFVDRGFYSVETFLLLLALKVRYPDRITLIRGNHESRQITQVYGFYDECLRKYGSVTVWRYCTEIFDYLSLSAIIDGKIFCVHGGLSPSIQTLDQIRTIDRKQEVPHDGPMCDLLWSDPEDTTGWGVSPRGAGYLFGSDVVAQFNAANDIDMICRAHQLVMEGYKWHFNETVLTVWSAPNYCYRCGNVAAILELDEHLQKDFIIFEAAPQETRGIPSKKPVADYFL
B5 was tested, and the binding [2] was “binds”.

B6: endogenous PP4c (MCC13 cells) (enzyme, UniProt P60510 1-307)
chain: MAEISDLDRQIEQLRRCELIKESEVKALCAKAREILVEESNVQRVDSPVTVCGDIHGQFYDLKELFRVGGDVPETNYLFMGDFVDRGFYSVETFLLLLALKVRYPDRITLIRGNHESRQITQVYGFYDECLRKYGSVTVWRYCTEIFDYLSLSAIIDGKIFCVHGGLSPSIQTLDQIRTIDRKQEVPHDGPMCDLLWSDPEDTTGWGVSPRGAGYLFGSDVVAQFNAANDIDMICRAHQLVMEGYKWHFNETVLTVWSAPNYCYRCGNVAAILELDEHLQKDFIIFEAAPQETRGIPSKKPVADYFL
In the case of B6, the binding [1] is reported as “binds”.

Results are given in words; binding and its absence hold for the method and conditions named. In cells and extracts the contact can be indirect. Binding can be weak; no strength is given. Sequences can lack the tags named with a protein.
